We go through 22 compounds from PubChem BioAssay AID248 (DTP/NCI, 2004).

This assay has as its system L1210 leukemia ip in BDF1 mice, survival T/C. The experiment in a line: NCI In Vivo Anticancer Drug Screen. Data for tumor model L1210 Leukemia (intraperitoneal) in B6D2F1 (BDF1) mice. Conditions: higher T/C = longer survival.
Setting [1] is: T/C endpoint: mean survival time, dose: 100.0 mg/kg/injection, schedule: Q01DX009 (ip), vehicle: saline with Tween-80.
Setting [2] is: T/C endpoint: mean survival time, dose: 400.0 mg/kg/injection, schedule: Q04DX003 (ip), vehicle: saline with Tween-80.
Setting [3] is: T/C endpoint: mean survival time, dose: 200.0 mg/kg/injection, schedule: Q01DX009 (ip), vehicle: saline with Tween-80.
The mark [4] stands for this setting: T/C endpoint: mean survival time, dose: 100.0 mg/kg/injection, schedule: Q01DX001 (ip), vehicle: saline.
Setting [5] is: T/C endpoint: mean survival time, dose: 200.0 mg/kg/injection, schedule: Q01DX001 (ip), vehicle: saline.
Setting [6] is: T/C endpoint: mean survival time, dose: 400.0 mg/kg/injection, schedule: Q01DX001 (ip), vehicle: saline.
Where [7] appears, read: T/C endpoint: mean survival time, dose: 150.0 mg/kg/injection, schedule: Q01DX001 (ip), vehicle: saline.
[8] abbreviates: T/C endpoint: mean survival time, dose: 300.0 mg/kg/injection, schedule: Q01DX001 (ip), vehicle: saline.
The mark [9] stands for this setting: T/C endpoint: mean survival time, dose: 100.0 mg/kg/injection, schedule: Q04DX002 (ip), vehicle: Klucel (hydroxypropylcellulose) (HPC).
Setting [10] is: T/C endpoint: mean survival time, dose: 200.0 mg/kg/injection, schedule: Q04DX002 (ip), vehicle: Klucel (hydroxypropylcellulose) (HPC).
The mark [11] stands for this setting: T/C endpoint: mean survival time, dose: 400.0 mg/kg/injection, schedule: Q04DX002 (ip), vehicle: Klucel (hydroxypropylcellulose) (HPC).

The structures appear in SMILES notation. The list is a part of this screen's results and no random one: it is rich in T/C values a quarter to a half above the control, in often repeated tests (any T/C) and in doses without a T/C. Other doses and runs of a compound stand elsewhere. T/C is the treated group as % of the vehicle group. Some doses have a count of surviving animals in place of a T/C: the source files T/C as zero there, which appears to mark a toxic dose or a test without result, not a measured value. Some doses without a T/C left all or most animals alive at the check, yet need not have been tolerated: the source hardly ever lists a survival T/C far under the control, and the zero likely stands for such cases as well. Counts of survivors are from the toxicity check (mostly the fifth day) where no day follows; animals may have died later. Schedule codes are those of the source, taken here to give the interval after Q, in days (D) or hours (H), and the number of doses after X. Some schedules carry Z or #; the key to these is not given. Some entries were tested several times; their values stand side by side, smallest first. Where survival is the endpoint, this PubChem deposit counts one and a half times the control or more as active, and values a quarter to a half above the control carry no call in these data; other NCI protocols may use other cut-offs. Some T/C values are followed by the survivors on the day toxicity was checked, most often the fifth; where none is given, no animal had died by that day.

Take `CCN(CC)Cc1nc2nc(Cl)c(Cl)nc2[nH]1`: the survivor count by setting is: under setting [1], 3 of 6; (T/C endpoint: mean survival time, dose: 200.0 mg/kg/injection, schedule: Q04DX003 (ip), vehicle: saline with Tween-80) 2 of 6; under setting [2], 3 of 6.

`CCC1CN2C(=N1)c1cc(Cl)ccc1-c1ccc(Cl)cc12` (stereo unspecified): the survivor count (T/C endpoint: mean survival time, dose: 400.0 mg/kg/injection, schedule: Q01DX009 (ip), vehicle: Klucel (hydroxypropylcellulose) (HPC)) is 2 of 6.

In the case of `Nc1n[nH]c(=O)[nH]1`, the T/C (T/C endpoint: mean survival time, dose: 150.0 mg/kg/injection, schedule: Q03HX024 (ip), vehicle: saline) is 139 % of control; the T/C (T/C endpoint: mean survival time, dose: 178.0 mg/kg/injection, schedule: Q01DX009 (ip), vehicle: saline) was 133 % of control; the T/C (T/C endpoint: mean survival time, dose: 266.0 mg/kg/injection, schedule: Q01DX009 (ip), vehicle: saline) was 147 % of control; the T/C (T/C endpoint: mean survival time, dose: 400.0 mg/kg/injection, schedule: Q01DX009 (ip), vehicle: saline) was 144 and 146 % of control.

Regarding `Oc1cccc2cccnc12`, the survivor count (T/C endpoint: mean survival time, dose: 200.0 mg/kg/injection, schedule: Q01DX001 (ip), vehicle: carboxymethylcellulose (CMC)) is listed as 2 of 4.

Consider `Nc1ccc2cc(O)ccc2c1`, for which the survivor count is, setting by setting: under setting [1], 3 of 3; under setting [3], 0 of 3.

As for `O=C1C=C(c2ccccc2)S(=O)(=O)C(c2ccccc2)=C1`, the survivor count is, setting by setting: (T/C endpoint: mean survival time, dose: 150.0 mg/kg/injection, schedule: Q01DX001 (ip), vehicle: carboxymethylcellulose (CMC)) 2 of 6; (T/C endpoint: mean survival time, dose: 300.0 mg/kg/injection, schedule: Q01DX001 (ip), vehicle: carboxymethylcellulose (CMC)) 0 of 6.

`O=NN(CCCl)C(=O)NC(Cc1ccccc1)C(=O)O` (stereo unspecified): under “T/C endpoint: mean survival time, dose: 18.0 mg/kg/injection, schedule: Q01DX001 (ip), vehicle: gum acacia”, the T/C was 134 % of control. Moreover, the survivor count is, setting by setting: (T/C endpoint: mean survival time, dose: 266.0 mg/kg/injection, schedule: Q01DX001 (ip), vehicle: gum acacia) 5 of 10; (T/C endpoint: mean survival time, dose: 400.0 mg/kg/injection, schedule: Q01DX001 (ip), vehicle: gum acacia) 1 of 10.

Regarding `CCCCCCCCNCCNCCCCCCCC`, the survivor count under setting [4] is recorded as 2 of 4, the survivor count under setting [5] was 0 of 4 and the survivor count under setting [6] is reported as 0 of 4.

On to `NNC(=O)Cc1csc2ccccc12`, for which the survivor count (T/C endpoint: mean survival time, dose: 187.0 mg/kg/injection, schedule: Q01DX Z (ip), vehicle: carboxymethylcellulose (CMC)) is given as 5 of 6.

Turning to `CN(C)CCC(C=NCC(CCN(C)C)(CCN(C)C)c1cccc2ccccc12)(CCN(C)C)c1cccc2ccccc12`, the survivor count was 5 of 6 (T/C endpoint: mean survival time, dose: 50.0 mg/kg/injection, schedule: Q01DX009 (ip), vehicle: saline with Tween-80); 0 of 6 (T/C endpoint: mean survival time, dose: 50.0 mg/kg/injection, schedule: Q04DX003 (ip), vehicle: saline with Tween-80); 0 of 6 under setting [1]; 0 of 6 under setting [3]; 0 of 6 (T/C endpoint: mean survival time, dose: 400.0 mg/kg/injection, schedule: Q01DX009 (ip), vehicle: saline with Tween-80).

Regarding `COc1cccc(OC)c1C#N`, the survivor count (T/C endpoint: mean survival time, dose: 400.0 mg/kg/injection, schedule: Q04DX003 (ip), vehicle: Klucel (hydroxypropylcellulose) (HPC)) was 6 of 6.

Take `C/C=C(/Cl)C(=O)O`: the survivor count is recorded as 2 of 4 under setting [4], 1 of 4 under setting [5] and 0 of 4 under setting [6].

For the compound `COC(=O)C(Cc1c[nH]c2ccccc12)[N+](C)(C)C` (stereo unspecified), the survivor count is, setting by setting: (T/C endpoint: mean survival time, dose: 75.0 mg/kg/injection, schedule: Q01DX Z (ip), vehicle: saline) 6 of 6; (T/C endpoint: mean survival time, dose: 110.0 mg/kg/injection, schedule: Q01DX Z (ip), vehicle: saline) 5 of 6 and 6 of 6; (T/C endpoint: mean survival time, dose: 165.0 mg/kg/injection, schedule: Q01DX Z (ip), vehicle: saline) 0 of 6; (T/C endpoint: mean survival time, dose: 250.0 mg/kg/injection, schedule: Q01DX Z (ip), vehicle: saline) 0 of 6; (T/C endpoint: mean survival time, dose: 375.0 mg/kg/injection, schedule: Q01DX Z (ip), vehicle: saline) 0 of 6.

With `O=NN(CCCl)C(=O)NCC1CCC(CNC(=O)N(CCCl)N=O)CC1` (stereo unspecified), the T/C reads like this: (T/C endpoint: mean survival time, dose: 120.0 mg/kg/injection, schedule: Q01DX001 (ip), vehicle: carboxymethylcellulose (CMC)) 142 % of control; (T/C endpoint: mean survival time, dose: 200.0 mg/kg/injection, schedule: Q01DX009 (ip), vehicle: Klucel (hydroxypropylcellulose) (HPC)) 137 % of control. Besides, under “T/C endpoint: mean survival time, dose: 600.0 mg/kg/injection, schedule: Q01DX009 (ip), vehicle: carboxymethylcellulose (CMC)”, the survivor count is reported as 5 of 6.

As to `CN=C(NN)NN`, the survivor count runs as follows: (T/C endpoint: mean survival time, dose: 40.0 mg/kg/injection, schedule: Q01DX001 (ip), vehicle: saline) 0 of 6; (T/C endpoint: mean survival time, dose: 75.0 mg/kg/injection, schedule: Q01DX001 (ip), vehicle: saline) 0 of 6; under setting [7], 0 of 6; under setting [8], 0 of 6.

Take `C=CC(=O)[O][Pb]([CH2]C)([CH2]C)[CH2]C`: the survivor count reads like this: (T/C endpoint: mean survival time, dose: 25.0 mg/kg/injection, schedule: Q04DX002 (ip), vehicle: Klucel (hydroxypropylcellulose) (HPC)) 0 of 3; (T/C endpoint: mean survival time, dose: 50.0 mg/kg/injection, schedule: Q04DX002 (ip), vehicle: Klucel (hydroxypropylcellulose) (HPC)) 0 of 3; under setting [9], 0 of 3; under setting [10], 0 of 3; under setting [11], 0 of 3.

`COc1ccc(CC(=O)NCCc2ccc3c(c2)OCO3)cc1OC`: the survivor count was 3 of 6 (T/C endpoint: mean survival time, dose: 300.0 mg/kg/injection, schedule: Q01DX009 (ip), vehicle: saline with Tween-80) and 3 of 6 under setting [2].

With `O=C(O)c1ccc(S(=O)(=O)Cl)cc1`, the survivor count by setting is: under setting [9], 3 of 3; under setting [10], 3 of 3; under setting [11], 2 of 3.

As to `CN(N=O)C(=O)NCCCCCNC(=O)N(C)N=O`, the T/C was 136 % of control (T/C endpoint: mean survival time, dose: 100.0 mg/kg/injection, schedule: Q01DX Z (ip), vehicle: carboxymethylcellulose (CMC)); 141 % of control (T/C endpoint: mean survival time, dose: 125.0 mg/kg/injection, schedule: Q01DX Z (ip), vehicle: carboxymethylcellulose (CMC)); 134 % of control (T/C endpoint: mean survival time, dose: 420.0 mg/kg/injection, schedule: Q01DX001 (ip), vehicle: carboxymethylcellulose (CMC)); 142 % of control [7 of 10 alive] (T/C endpoint: mean survival time, dose: 840.0 mg/kg/injection, schedule: Q01DX001 (ip), vehicle: carboxymethylcellulose (CMC)). In addition, the survivor count (T/C endpoint: mean survival time, dose: 1680.0 mg/kg/injection, schedule: Q01DX001 (ip), vehicle: carboxymethylcellulose (CMC)) is given as 0 of 10 and the survivor count (T/C endpoint: mean survival time, dose: 3360.0 mg/kg/injection, schedule: Q01DX001 (ip), vehicle: carboxymethylcellulose (CMC)) was 0 of 10.

Take `CN(C)C1CCCC/C=C\C(=O)NC1` (stereo unspecified): the survivor count is 2 of 6 under setting [7] and 0 of 6 under setting [8].

Regarding `O=CC(O)CO` (stereo unspecified), the survivor count is, setting by setting: (T/C endpoint: mean survival time, dose: 1400.0 mg/kg/injection, schedule: Q01DX Z (ip), vehicle: other) 3 of 6; (T/C endpoint: median survival time, dose: 860.0 mg/kg/injection, schedule: Q01DX005 (ip), vehicle: saline sonified) 2 of 8; (T/C endpoint: median survival time, dose: 1604.0 mg/kg/injection, schedule: Q01DX001 (ip), vehicle: saline sonified) 2 of 8; (T/C endpoint: median survival time, dose: 1782.0 mg/kg/injection, schedule: Q01DX001 (ip), vehicle: saline sonified) 5 of 8. The T/C was 126 % of control (T/C endpoint: median survival time, dose: 352.0 mg/kg/injection, schedule: Q01DX005 (ip), vehicle: other) and 126 % of control (T/C endpoint: median survival time, dose: 550.0 mg/kg/injection, schedule: Q01DX005 (ip), vehicle: other).

`O=C1CCN(Cc2ccccc2)C(=S)N1`: the survivor count (T/C endpoint: mean survival time, dose: 200.0 mg/kg/injection, schedule: Q01DX Z (ip), vehicle: methylcellulose (MC)) is 3 of 6.
